Results are given in words; binding and its absence hold for the method and conditions named. In cells and extracts the contact can be indirect. These calls come from enrichment with a bait or labelling near it, and not all partners need be listed. Where a sequence is shown, tags or fusion partners need not be part of it.
B1: STAG1 (protein, UniProt Q8WVM7 1-1258)
chain: MITSELPVLQDSTNETTAHSDAGSELEETEVKGKRKRGRPGRPPSTNKKPRKSPGEKSRIEAGIRGAGRGRANGHPQQNGEGEPVTLFEVVKLGKSAMQSVVDDWIESYKQDRDIALLDLINFFIQCSGCRGTVRIEMFRNMQNAEIIRKMTEEFDEDSGDYPLTMPGPQWKKFRSNFCEFIGVLIRQCQYSIIYDEYMMDTVISLLTGLSDSQVRAFRHTSTLAAMKLMTALVNVALNLSIHQDNTQRQYEAERNKMIGKRANERLELLLQKRKELQENQDEIENMMNSIFKGIFVHRYRDAIAEIRAICIEEIGVWMKMYSDAFLNDSYLKYVGWTLHDRQGEVRLKCLKALQSLYTNRELFPKLELFTNRFKDRIVSMTLDKEYDVAVEAIRLVTLILHGSEEALSNEDCENVYHLVYSAHRPVAVAAGEFLHKKLFSRHDPQAEEALAKRRGRNSPNGNLIRMLVLFFLESELHEHAAYLVDSLWESSQELLKDWECMTELLLEEPVQGEEAMSDRQESALIELMVCTIRQAAEAHPPVGRGTGKRVLTAKERKTQIDDRNKLTEHFIITLPMLLSKYSADAEKVANLLQIPQYFDLEIYSTGRMEKHLDALLKQIKFVVEKHVESDVLEACSKTYSILCSEEYTIQNRVDIARSQLIDEFVDRFNHSVEDLLQEGEEADDDDIYNVLSTLKRLTSFHNAHDLTKWDLFGNCYRLLKTGIEHGAMPEQIVVQALQCSHYSILWQLVKITDGSPSKEDLLVLRKTVKSFLAVCQQCLSNVNTPVKEQAFMLLCDLLMIFSHQLMTGGREGLQPLVFNPDTGLQSELLSFVMDHVFIDQDEENQSMEGDEEDEANKIEALHKRRNLLAAFSKLIIYDIVDMHAAADIFKHYMKYYNDYGDIIKETLSKTRQIDKIQCAKTLILSLQQLFNELVQEQGPNLDRTSAHVSGIKELARRFALTFGLDQIKTREAVATLHKDGIEFAFKYQNQKGQEYPPPNLAFLEVLSEFSSKLLRQDKKTVHSYLEKFLTEQMMERREDVWLPLISYRNSLVTGGEDDRMSVNSGSSSSKTSSVRNKKGRPPLHKKRVEDESLDNTWLNRTDTMIQTPGPLPAPQLTSTVLRENSRPMGDQIQEPESEHGSEPDFLHNPQMQISWLGQPKLEDLNRKDRTGMNYMKVRTGVRHAVRGLMEEDAEPIFEDVMMSSRSQLEDMNEEFEDTMVIDLPPSRNRRERAELRPDFFDSAAIIEDDSGFGMPMF
B2: STAG3 (protein, UniProt Q9UJ98 1-1225)
chain: MSSPLQRAVGDTKRALSASSSSSASLPFDDRDSNHTSEGNGDSLLADEDTDFEDSLNRNVKKRAAKRPPKTTPVAKHPKKGSRVVHRHSRKQSEPPANDLFNAVKAAKSDMQSLVDEWLDSYKQDQDAGFLELVNFFIQSCGCKGIVTPEMFKKMSNSEIIQHLTEQFNEDSGDYPLIAPGPSWKKFQGSFCEFVRTLVCQCQYSLLYDGFPMDDLISLLTGLSDSQVRAFRHTSTLAAMKLMTSLVKVALQLSVHQDNNQRQYEAERNKGPGQRAPERLESLLEKRKELQEHQEEIEGMMNALFRGVFVHRYRDVLPEIRAICIEEIGCWMQSYSTSFLTDSYLKYIGWTLHDKHREVRLKCVKALKGLYGNRDLTTRLELFTSRFKDRMVSMVMDREYDVAVEAVRLLILILKNMEGVLTDADCESVYPVVYASHRGLASAAGEFLYWKLFYPECEIRMMGGREQRQSPGAQRTFFQLLLSFFVESELHDHAAYLVDSLWDCAGARLKDWEGLTSLLLEKDQNLGDVQESTLIEILVSSARQASEGHPPVGRVTGRKGLTSKERKTQADDRVKLTEHLIPLLPQLLAKFSADAEKVTPLLQLLSCFDLHIYCTGRLEKHLELFLQQLQEVVVKHAEPAVLEAGAHALYLLCNPEFTFFSRADFARSQLVDLLTDRFQQELEELLQSSFLDEDEVYNLAATLKRLSAFYNTHDLTRWELYEPCCQLLQKAVDTGEVPHQVILPALTLVYFSILWTLTHISKSDASQKQLSSLRDRMVAFCELCQSCLSDVDTEIQEQAFVLLSDLLLIFSPQMIVGGRDFLRPLVFFPEATLQSELASFLMDHVFIQPGDLGSGDSQEDHLQIERLHQRRRLLAGFCKLLLYGVLEMDAASDVFKHYNKFYNDYGDIIKETLTRARQIDRSHCSRILLLSLKQLYTELLQEHGPQGLNELPAFIEMRDLARRFALSFGPQQLQNRDLVVMLHKEGIQFSLSELPPAGSSNQPPNLAFLELLSEFSPRLFHQDKQLLLSYLEKCLQHVSQAPGHPWGPVTTYCHSLSPVENTAETSPQVLPSSKRRRVEGPAKPNREDVSSSQEESLQLNSIPPTPTLTSTAVKSRQPLWGLKEMEEEDGSELDFAQGQPVAGTERSRFLGPQYFQTPHNPSGPGLGNQLMRLSLMEEDEEEELEIQDESNEERQDTDMQASSYSSTSERGLDLLDSTELDIEDF

Chains of the proteins cited; added tags and fusions are not shown.
UniProt Q9UQE7: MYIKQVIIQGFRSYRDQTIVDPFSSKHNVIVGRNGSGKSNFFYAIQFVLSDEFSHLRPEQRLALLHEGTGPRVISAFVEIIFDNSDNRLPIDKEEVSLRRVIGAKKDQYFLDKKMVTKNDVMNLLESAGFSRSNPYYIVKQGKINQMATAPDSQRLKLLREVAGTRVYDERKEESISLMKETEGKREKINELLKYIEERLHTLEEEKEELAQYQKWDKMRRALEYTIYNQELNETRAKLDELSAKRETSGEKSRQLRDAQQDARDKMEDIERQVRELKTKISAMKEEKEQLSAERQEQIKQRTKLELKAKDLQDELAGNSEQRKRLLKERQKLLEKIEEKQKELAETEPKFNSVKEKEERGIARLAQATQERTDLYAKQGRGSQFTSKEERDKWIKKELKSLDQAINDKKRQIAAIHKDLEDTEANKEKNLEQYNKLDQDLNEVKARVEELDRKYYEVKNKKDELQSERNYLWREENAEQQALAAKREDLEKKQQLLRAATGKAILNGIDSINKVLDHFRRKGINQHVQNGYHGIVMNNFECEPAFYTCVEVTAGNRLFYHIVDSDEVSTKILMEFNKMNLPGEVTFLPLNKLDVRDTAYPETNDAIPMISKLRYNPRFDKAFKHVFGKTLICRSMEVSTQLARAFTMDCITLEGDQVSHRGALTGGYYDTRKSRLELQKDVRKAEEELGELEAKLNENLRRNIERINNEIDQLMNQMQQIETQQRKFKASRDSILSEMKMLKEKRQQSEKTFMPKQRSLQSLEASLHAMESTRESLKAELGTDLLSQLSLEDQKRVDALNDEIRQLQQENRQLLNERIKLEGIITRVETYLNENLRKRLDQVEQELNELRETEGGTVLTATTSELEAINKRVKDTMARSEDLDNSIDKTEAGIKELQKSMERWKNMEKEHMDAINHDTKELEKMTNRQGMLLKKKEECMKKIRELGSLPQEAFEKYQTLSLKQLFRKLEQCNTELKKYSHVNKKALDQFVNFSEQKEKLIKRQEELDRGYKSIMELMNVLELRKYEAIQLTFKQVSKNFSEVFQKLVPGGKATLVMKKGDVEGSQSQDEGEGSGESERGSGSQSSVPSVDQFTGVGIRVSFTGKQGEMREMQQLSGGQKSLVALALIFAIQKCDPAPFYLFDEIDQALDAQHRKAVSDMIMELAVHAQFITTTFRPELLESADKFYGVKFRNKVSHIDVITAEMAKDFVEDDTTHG

Target: SMC3 (human (endogenous in skin fibroblasts)) (UniProt Q9UQE7)
Test: affinity purification with mass spectrometry; anti-SMC3 immunoprecipitation from control and Pt1 fibroblast extracts (4 mg extract; 10 ug antibody and 10 ul protein A beads per 1 mg), 1 h at room temperature, washes with TBS/T and TBS/T + 250 mM NaCl, elution with 100 mM glycine pH 2; nLC-MS/MS of gel slices

Binder	binding
B1	binds
B2	binds

— article PMC12765388
